Whole data set: some 33,000 sequences, median “E-score (-0.5 to 0.5)” near -0.015, cut for the highest 2% near 0.3. The list shows a part of the results.

This assay addresses T1, Abf1 (UniProt P14164).
T1 sequence: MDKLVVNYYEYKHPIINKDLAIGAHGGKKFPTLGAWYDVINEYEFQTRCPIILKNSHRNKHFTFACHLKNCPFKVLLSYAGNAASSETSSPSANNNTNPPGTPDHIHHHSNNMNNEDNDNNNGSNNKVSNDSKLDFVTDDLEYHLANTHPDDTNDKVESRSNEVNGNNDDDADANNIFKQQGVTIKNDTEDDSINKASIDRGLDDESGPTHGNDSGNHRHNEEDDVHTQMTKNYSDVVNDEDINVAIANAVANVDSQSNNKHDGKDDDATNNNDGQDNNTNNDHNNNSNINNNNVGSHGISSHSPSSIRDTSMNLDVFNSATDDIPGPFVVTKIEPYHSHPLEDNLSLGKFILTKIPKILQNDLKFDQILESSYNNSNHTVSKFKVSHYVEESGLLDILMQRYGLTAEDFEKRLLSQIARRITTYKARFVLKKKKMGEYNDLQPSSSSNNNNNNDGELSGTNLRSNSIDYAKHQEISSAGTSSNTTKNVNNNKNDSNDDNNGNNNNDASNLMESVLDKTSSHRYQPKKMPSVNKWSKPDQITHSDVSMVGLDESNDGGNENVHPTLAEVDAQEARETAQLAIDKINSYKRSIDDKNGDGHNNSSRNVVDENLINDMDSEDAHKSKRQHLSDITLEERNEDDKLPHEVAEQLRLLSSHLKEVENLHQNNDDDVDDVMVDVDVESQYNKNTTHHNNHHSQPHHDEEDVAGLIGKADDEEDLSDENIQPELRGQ
Kind of assay: PBM E-score (8-mer binding enrichment) (E-score (-0.5 to 0.5)); higher = stronger / more preferred TF binding. Particulars: protein concentration: 200 nM; construct: GST-full length. Summed up:
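Each ungapped eight-base word and its reverse complement, pooled, received an E-score from the Universal PBM Analysis Suite. Underlying scans, normalised with masliner, recorded fluorescent anti-GST bound to GST-tagged yeast transcription factors. These were applied at about 100-200 nM to universal all-10-mer Agilent arrays double-stranded by primer extension.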
On to CGATGTTC, for which the “PBM E-score” value is -0.012.
For TAGGCTCA, the “PBM E-score” value was -0.177.
The figure for CAGCACCA is -0.243; for CGGAGCGC it is -0.166.
As for GTTCTGAA, the “PBM E-score” value is -0.0245.
The figure for GAGGAGCA is -0.128.
The figure for ACTAAGTG is 0.108.
The figure for TCTTGACA is 0.0364; for CGGTCTAA it is -0.103; for CGGGCGTA it is -0.161.
As to CCAGAACA, the “PBM E-score” value is -0.113.
In the case of GCAAAGCC it was -0.2.
The figure for AAAACTAG is -0.0309; for ATCGTTTC it is 0.325.
The figure for GCGTTCTA is -0.12; for AAAGATGG it is 0.00619; for CATTATCC it is 0.262.
For the sequence CACGGTAC, the “PBM E-score” value came out at 0.234.
In the case of CCTGCACC it was -0.268.
In the case of GAAGTATA it was 0.105; in that of GAGCATGA, 0.035; in that of AACCGCTA, -5e-05.
In the case of CGTCAAAC it was 0.0928; in that of AAGTCGAA, -0.139; in that of CGCTGCGC, -0.261.
ATCAATAA: the “PBM E-score” value was 0.127.
In the case of GCTGTCCA it was 0.0906.
The figure for TCAGTCCA is -0.171; for CTTTGAAA it is 0.0687.
The figure for AAGCTAGT is -0.0558; for AACCAATT it is 0.0773.
In the case of CCAGTTCC, the “PBM E-score” value was -0.219.
In the case of CGGCGGCA it was -0.051; in that of CGGCAGTC, -0.0776.
TATAGCCA: the “PBM E-score” value came to 0.0353.
In the case of ATCTCGCC it was -0.00195; in that of TCCGGCCA, -0.121.
In the case of ATACGTTG it was 0.0885.
The figure for CGCATCAC is 0.263.
For the sequence AAACCTTT, the “PBM E-score” value is -0.105.
The figure for CATGTCGA is -0.00302; for TAATTTGA it is 0.002.
The figure for AAAGATCT is -0.0519; for TACTTATA it is 0.0782.
In the case of ACTAGTGG it was 0.0317; in that of AGTCTGTC, -0.192; in that of AGAGACGG, 0.203.
As for AGGTGTGA, the “PBM E-score” value was -0.255.
The figure for CGACGCAA is -0.0887.
The figure for TCGCCGCA is 0.052; for AAGAGGGA it is -0.181; for ATAGCAAC it is -0.0858.
The figure for CCAGTTTA is -0.172.
On to TAATACCA, for which the “PBM E-score” value came to 0.244.
The figure for AGCGTCGG is -0.0578; for ACAGAGAG it is -0.223; for AACTTCTA it is 0.123.
Consider CCATGTTA, for which the “PBM E-score” value stood at 0.0249.
In the case of AGCGATAG it was 0.0445.
In the case of CCTCGTAA it was 0.131; in that of ACGAGACC, 0.035.
For CGCAGGCG, the “PBM E-score” value is -0.137.
The figure for AGGACCTA is -0.0385; for TAGGCGAA it is 0.0221; for AATGACAA it is 0.397.
The figure for GCGGTCAC is 0.128.
In the case of AGGTCACA it was -0.0336.
On to AACAACGA, for which the “PBM E-score” value came to 0.0389.
In the case of CAGGGCGG it was -0.192; in that of AAATCACT, 0.374; in that of ACGCTCCT, -0.0391.
Regarding CTGTCTCC, the “PBM E-score” value was -0.079.
In the case of TACAGGTA it was 0.00115; in that of ATGCCATG, 0.159; in that of CATCGCGG, -0.0312.
The figure for AGCGCATC is 0.00029; for TGCTGAAA it is -0.101; for AGGAATAT it is 0.111.
The figure for GGCGCCCC is -0.281; for CGAGACGA it is 0.0484; for ATTAGGCA it is 0.114.
With GCTTGCAC, the “PBM E-score” value was -0.177.
Take CCTATCAC: the “PBM E-score” value is 0.219.
The figure for AAACCGGC is -0.0715; for AGTGCACT it is -0.0398; for GGGAGAAA it is -0.195.

Values taken from the supplement of paper PMC3334620.
